{"sequences": {"note": "Sequences of proteins named here, by UniProt entry; tags and fusion partners are left off. A change or cut given only in a name is not applied to a line headed by its entry.", "UniProt Q86Y07": "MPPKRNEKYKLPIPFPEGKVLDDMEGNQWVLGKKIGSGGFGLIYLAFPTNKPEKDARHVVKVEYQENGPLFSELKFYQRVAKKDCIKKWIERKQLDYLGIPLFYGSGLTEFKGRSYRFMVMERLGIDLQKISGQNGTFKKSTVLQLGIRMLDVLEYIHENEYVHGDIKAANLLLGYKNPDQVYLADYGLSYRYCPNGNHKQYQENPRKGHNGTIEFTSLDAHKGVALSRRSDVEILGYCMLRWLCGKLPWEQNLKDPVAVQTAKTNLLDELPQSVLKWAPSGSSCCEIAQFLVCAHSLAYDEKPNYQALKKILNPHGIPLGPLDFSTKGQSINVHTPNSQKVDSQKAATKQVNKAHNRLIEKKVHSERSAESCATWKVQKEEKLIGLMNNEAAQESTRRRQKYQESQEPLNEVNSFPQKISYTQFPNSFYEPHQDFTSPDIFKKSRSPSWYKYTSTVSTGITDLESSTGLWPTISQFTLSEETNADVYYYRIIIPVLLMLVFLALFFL", "UniProt Q13283": "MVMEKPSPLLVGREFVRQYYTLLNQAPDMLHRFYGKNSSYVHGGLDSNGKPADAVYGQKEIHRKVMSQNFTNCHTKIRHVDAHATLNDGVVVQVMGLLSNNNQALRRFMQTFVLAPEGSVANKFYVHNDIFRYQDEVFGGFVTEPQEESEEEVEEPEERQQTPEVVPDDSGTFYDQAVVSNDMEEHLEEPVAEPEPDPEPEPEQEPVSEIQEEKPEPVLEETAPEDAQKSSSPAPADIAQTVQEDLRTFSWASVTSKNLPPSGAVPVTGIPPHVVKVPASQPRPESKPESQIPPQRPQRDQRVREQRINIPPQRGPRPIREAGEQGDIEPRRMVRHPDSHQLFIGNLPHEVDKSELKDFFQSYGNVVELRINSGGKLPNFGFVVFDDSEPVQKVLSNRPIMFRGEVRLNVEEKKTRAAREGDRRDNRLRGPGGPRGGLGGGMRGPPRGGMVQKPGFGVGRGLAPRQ"}, "source": "paper PMC11982375", "key": {"[1]": {"target": "pNTAP-VRK2 (human) (UniProt Q86Y07)", "assay": "pull-down; pNTAP-streptavidin pull down: U2OS cells transfected with pNTAP-Mock or pNTAP-VRK2, lysed in RIPA buffer; 1 mg lysate with streptavidin agarose resin 12 h at 4 °C; immunoblot"}, "[2]": {"target": "GST-G3BP1 (human) (UniProt Q13283)", "assay": "pull-down; GST pull down: GST-tagged recombinant protein mixed with His- or Intein-tagged recombinant protein in 20 mM Tris, 150 mM NaCl, 1 mM EDTA, 0.5% Triton-X; Glutathione Sepharose 4B overnight at 4 °C; immunoblot; both purified"}, "[3]": {"target": "pNTAP-VRK2 (human) (UniProt Q86Y07)", "assay": "pull-down; pNTAP-streptavidin pull down: U2OS cells transfected with pNTAP-Mock or pNTAP-VRK2, lysed in RIPA buffer; 1 mg lysate with streptavidin agarose resin 12 h at 4 °C; immunoblot", "remark": "listed apart in the source"}, "[4]": {"target": "Flag-VRK2 (human) (UniProt Q86Y07)", "assay": "co-IP; HEK293A cells transfected with FLAG-VRK2 and GFP-RNF144A (or Mock); 1 mg lysate with Anti-Flag antibody and protein A-agarose overnight at 4 °C; 50 mM Tris pH 7.5, 30 mM NaCl, 2 mM EDTA, 1% Triton X-100; immunoblot"}}, "note": "Where two headings read alike, the source gives them in different places. These are yes or no findings as the source states them, for the method shown. For some of these results: Binding seen in cells or lysates may run through a third protein. Some entries that bind do so weakly or less than the wild type. For some of these results: Where a sequence is shown, tags or fusion partners need not be part of it.", "data": [{"molecule": "G3BP1 (in U2OS cells) (from UniProt Q13283 1-466)", "values": [{"measurement": "binding", "setting": "[1]", "value": "binds"}]}, {"molecule": "His-VRK2 (from UniProt Q86Y07-1 1-508) (enzyme)", "values": [{"measurement": "binding", "setting": "[2]", "value": "binds"}]}, {"molecule": "RNF144A (in U2OS cells) (enzyme, UniProt P50876 1-292) MTTTRYRPTWDLALDPLVSCKLCLGEYPVEQMTTIAQCQCIFCTLCLKQYVELLIKEGLETAISCPDAACPKQGHLQENEIECMVAAEIMQRYKKLQFEREVLFDPCRTWCPASTCQAVCQLQDVGLQTPQPVQCKACRMEFCSTCKASWHPGQGCPETMPITFLPGETSAAFKMEEDDAPIKRCPKCKVYIERDEGCAQMMCKNCKHAFCWYCLESLDDDFLLIHYDKGPCRNKLGHSRASVIWHRTQVVGIFAGFGLLLLVASPFLLLATPFVLCCKCKCSKGDDDPLPT", "values": [{"measurement": "binding", "setting": "[3]", "value": "binds"}]}, {"molecule": "GFP-RNF144A (enzyme, UniProt P50876 1-292) MTTTRYRPTWDLALDPLVSCKLCLGEYPVEQMTTIAQCQCIFCTLCLKQYVELLIKEGLETAISCPDAACPKQGHLQENEIECMVAAEIMQRYKKLQFEREVLFDPCRTWCPASTCQAVCQLQDVGLQTPQPVQCKACRMEFCSTCKASWHPGQGCPETMPITFLPGETSAAFKMEEDDAPIKRCPKCKVYIERDEGCAQMMCKNCKHAFCWYCLESLDDDFLLIHYDKGPCRNKLGHSRASVIWHRTQVVGIFAGFGLLLLVASPFLLLATPFVLCCKCKCSKGDDDPLPT", "values": [{"measurement": "binding", "setting": "[4]", "value": "binds"}]}]}
